Measured values taken from PMC11643516, “Design, Synthesis, Structural Insights, Tyrosinase Inhibition, and Sun Protection Factor of New Thiosemicarbazone Derivatives” (Molecules, 2024).
Marks after values point to notes of the source that are not given here.

Test: not given
Parameters: method as in PMID 29564550
Details: reference sunscreen compounds; cited from earlier work

SMILES	SPF (sun protection factor)
O=C(O)/C=C/c1ccc(O)c(O)c1 [CA, caffeic acid]	6.6 ± 0.4 ^b
O=C(O)/C=C/c1ccccc1 [CI, cinnamic acid]	2.0 ± 0.2 ^d
COc1cc(/C=C/C(=O)O)ccc1O [FA, ferulic acid]	7.5 ± 0.2 ^b

Test: Sun protection factor by UV absorbance method (Mansur equation)
Format: physicochemical
Details: compounds 50 µM, absorbance 290–320 nm

SMILES	SPF (sun protection factor)
NC(=S)N/N=C/c1ccc(O)cc1 [TC1, (E)-2-(4-hydroxybenzylidene)hydrazine-1-carbothioamide]	11.0 ± 0.4 ^a,b
NC(=S)N/N=C/c1ccc(OS(=O)(=O)c2ccccc2)cc1 [TCBS1, (E)-4-((2-carbamothioylhydrazineylidene)methyl)phenyl benzenesulfonate]	11 ± 2 ^a,b
NC(=S)N/N=C/c1ccc(OS(=O)(=O)c2ccc([N+](=O)[O-])cc2)cc1 [TCBS2, (E)-4-((2-carbamothioylhydrazineylidene)methyl)phenyl 4-nitrolbenzenesulfonate]	13 ± 2 ^a
COc1ccc(S(=O)(=O)Oc2ccc(/C=N/NC(N)=S)cc2)cc1 [TCBS3, (E)-4-((2-carbamothioylhydrazineylidene)methyl)phenyl 4-methoxylbenzenesulfonate]	10 ± 2 ^a,b
Cc1ccc(S(=O)(=O)Oc2ccc(/C=N/NC(N)=S)cc2)cc1 [TCBS4, (E)-4-((2-carbamothioylhydrazineylidene)methyl)phenyl 4-methylbenzenesulfonate]	14 ± 2 ^a
NC(=S)N/N=C/c1ccc(OS(=O)(=O)c2ccc(Cl)cc2)cc1 [TCBS5, (E)-4-((2-carbamothioylhydrazineylidene)methyl)phenyl 4-chlorobenzenesulfonate]	11 ± 2 ^a,b
CS(=O)(=O)Oc1ccc(/C=N/NC(N)=S)cc1 [TCMS1, (E)-4-((2-carbamothioylhydrazineylidene)methyl)phenyl methanesulfonate]	11 ± 2 ^a,b
